According to publication PMC7913854:
These are yes or no findings as the source states them, for the method shown. In cells and extracts the contact can be indirect. Here binding means that the protein was enriched with, or labelled near, the bait; the list need not be complete. Tags and fused reporters may be left off the sequences shown.

Biological target: T1, human TLR8-HA (hTLR8-HA) (human) (UniProt Q9NR97)
T1 sequence: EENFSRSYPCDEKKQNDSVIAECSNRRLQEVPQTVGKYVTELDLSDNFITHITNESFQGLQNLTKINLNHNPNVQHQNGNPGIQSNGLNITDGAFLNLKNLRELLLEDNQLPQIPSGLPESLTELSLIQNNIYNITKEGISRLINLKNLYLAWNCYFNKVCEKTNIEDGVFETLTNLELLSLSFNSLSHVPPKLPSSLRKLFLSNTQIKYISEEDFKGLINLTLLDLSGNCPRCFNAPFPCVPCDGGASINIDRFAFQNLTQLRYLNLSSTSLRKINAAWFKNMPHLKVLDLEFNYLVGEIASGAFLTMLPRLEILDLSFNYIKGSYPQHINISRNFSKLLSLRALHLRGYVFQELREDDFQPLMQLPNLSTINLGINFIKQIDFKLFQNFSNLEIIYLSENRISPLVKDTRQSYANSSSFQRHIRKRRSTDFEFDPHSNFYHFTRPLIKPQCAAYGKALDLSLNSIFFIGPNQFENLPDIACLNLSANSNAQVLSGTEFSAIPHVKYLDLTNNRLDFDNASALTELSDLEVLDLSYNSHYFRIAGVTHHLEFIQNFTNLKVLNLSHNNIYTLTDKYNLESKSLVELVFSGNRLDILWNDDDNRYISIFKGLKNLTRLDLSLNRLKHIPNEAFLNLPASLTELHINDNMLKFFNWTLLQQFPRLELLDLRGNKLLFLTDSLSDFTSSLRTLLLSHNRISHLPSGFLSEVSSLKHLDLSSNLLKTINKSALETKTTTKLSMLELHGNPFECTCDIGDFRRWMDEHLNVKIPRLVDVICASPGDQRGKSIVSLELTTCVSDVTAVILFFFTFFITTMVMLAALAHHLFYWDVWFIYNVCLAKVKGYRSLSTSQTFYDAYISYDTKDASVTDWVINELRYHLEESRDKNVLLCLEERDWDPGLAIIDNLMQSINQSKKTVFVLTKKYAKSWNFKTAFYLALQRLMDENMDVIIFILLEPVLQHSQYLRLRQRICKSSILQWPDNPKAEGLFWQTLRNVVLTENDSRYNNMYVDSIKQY
Assay: affinity purification with mass spectrometry; anti-HA immunoprecipitation from HEK293 cells transfected with TLR4 with or without TLR8-HA, with and without stimulation; label-free quantitative MS, six experiments per group

binding: binds
B1: protein unc-93 homolog B1 (UNC93B1) (protein, UniProt Q9H1C4 1-597)
chain: MEAEPPLYPMAGAAGPQGDEDLLGVPDGPEAPLDELVGAYPNYNEEEEERRYYRRKRLGVLKNVLAASAGGMLTYGVYLGLLQMQLILHYDETYREVKYGNMGLPDIDSKMLMGINVTPIAALLYTPVLIRFFGTKWMMFLAVGIYALFVSTNYWERYYTLVPSAVALGMAIVPLWASMGNYITRMAQKYHEYSHYKEQDGQGMKQRPPRGSHAPYLLVFQAIFYSFFHLSFACAQLPMIYFLNHYLYDLNHTLYNVQSCGTNSHGILSGFNKTVLRTLPRSGNLIVVESVLMAVAFLAMLLVLGLCGAAYRPTEEIDLRSVGWGNIFQLPFKHVRDYRLRHLVPFFIYSGFEVLFACTGIALGYGVCSVGLERLAYLLVAYSLGASAASLLGLLGLWLPRPVPLVAGAGVHLLLTFILFFWAPVPRVLQHSWILYVAAALWGVGSALNKTGLSTLLGILYEDKERQDFIFTIYHWWQAVAIFTVYLGSSLHMKAKLAVLLVTLVAAAVSYLRMEQKLRRGVAPRQPRIPRPQHKVRGYRYLEEDNSDESDAEGEHGDGAEEEAPPAGPRPGPEPAGLGRRPCPYEQAQGGDGPEEQ
